# According to PubChem BioAssay AID504467 (National Center for Advancing Translational Sciences (NCATS), 2011):
# Hit rate of the full screen: of about 330,000 compounds, about 7,700 (2.3%) were called active. Inconclusive means that the source gave no clear call. Such entries were picked first, then a sample of the others. Calls follow the shape of the dose curve; as a rule, active = well fitted inhibition curve with a large enough effect; inconclusive = small, poorly fitted or top-dose-only effect, or effect the other way; inactive = flat fitted curve, though single readings scatter. Potencies beside an inconclusive call are fits to weak or partial responses and may not hold up.
# Test: qHTS screen for small molecules that inhibit ELG1-dependent DNA repair in human embryonic kidney (HEK293T) cells expressing luciferase-tagged ELG1; also: nearly all actives have a fitted effect of over 55% in size
# Conditions: HEK293T ELG1-luciferase reporter, luminescence, 16 h, DNA damage induced by 5-fluorouridine; series mostly up to 46.1 µM
# Outline: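 HEK293T cells expressing luciferase-tagged ELG1 (2,000/well) received 5-Fluorouridine plus compound or DMSO for 16 hr at 37 °C. Luciferase was read by ONE-Glo luminescence after 30 min at room temperature.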
# Potency is read from the fitted curve at half-maximal effect.
row,SMILES,Potency
1,Cn1cnnc1SCc1ccc(C(=O)NN)cc1,inactive
2,Cc1ccc(C(=O)N2CCN(C3c4cccc5cccc(c45)C3NS(=O)(=O)c3ccccc3)CC2)cc1 (centres undefined),"inconclusive: 35.5 µM [inhibitor, single point]"
3,CCOc1cccc2cc(-c3csc(NC(=O)CCC(=O)NCCN4CCCCC4C)n3)c(=O)oc12 (centres undefined),"inconclusive: 9.2 µM [activator, partial curve]"
4,O=C(NC(NCc1cccnc1)C(Cl)(Cl)Cl)c1cccc2ccccc12 (centres undefined),"inconclusive: 20.6 µM [activator, partial curve, poor fit]"
5,COc1ccc(OCc2cc(C(=O)N3C[C@H]4CC[C@H]3C4)no2)c(Cl)c1,"inconclusive: 20.6 µM [activator, partial curve]"
6,NC(=O)c1ccc(NC(=O)COC(=O)CCC2CCCCC2)cc1,"inconclusive: 6.51 µM [activator, single point]"
7,CC1(C)CC[C@]2(C(=O)O)CC[C@]3(C)C(=CC[C@@H]4[C@@]5(C)CC[C@H](O)C(C)(C)[C@@H]5CC[C@]43C)[C@@H]2C1,"inconclusive: 23.1 µM [activator, partial curve, poor fit]"
8,Cc1ccc(Nc2nc(N)nc(-c3oc4ccccc4c3C)n2)cc1,"inconclusive: 18.3 µM [activator, partial curve]"
9,Cc1ccn2cc(C(=O)Nc3cccc(C(=O)NC4CC4)c3)nc2c1,"inconclusive: 2.91 µM [activator, single point]"
10,O=[N+]([O-])c1ccc(/C=[N+](\[O-])[C@@H]2CCCC[C@@H]2/[N+]([O-])=C/c2ccc([N+](=O)[O-])o2)o1,"inconclusive: 29.1 µM [inhibitor, single point]"
11,O=C(NC(=S)NNC(=O)[C@H]1C[C@@H]1c1ccccc1)c1ccc(F)cc1,"inconclusive: 25.9 µM [inhibitor, single point]"
12,Cc1ccc(S(=O)(=O)Cn2nnnc2CN2CCCC3(CCCCC3)C2)cc1,"inconclusive: 20.6 µM [inhibitor, single point]"
13,COc1cc(S(=O)(=O)Nc2cccc(C)c2)ccc1N=Cc1c(C)[nH]n(-c2ccccc2)c1=O,"inconclusive: 18.4 µM [inhibitor, partial curve]"
14,Cc1cccc(NC(=O)c2ccc3c(=O)n4c(nc3c2)CCCCC4)n1,"inconclusive: 0.651 µM [activator, partial curve]"
15,O=C(c1cc(-n2cnnc2)ccc1Cl)N1CCN(c2nc(-c3ccccc3)cs2)CC1,inactive
16,O=C(CCc1ccc(S(=O)(=O)N2CCOCC2)cc1)Nc1cc(Cl)ccc1N1CCOCC1,"inconclusive: 14.6 µM [inhibitor, partial curve]"
17,Nc1n[nH]c(N)c1N=Nc1cccc(F)c1,inactive
18,CC(=O)c1cccc(NC(=O)CSc2ccc(-c3sc(C)nc3C)nn2)c1,active: 23.1 µM
19,COc1cc2c(C(=O)N(C)c3ccc(F)cc3)cn(C)c(=O)c2cc1OC,inactive
20,Cn1nc(C(F)(F)F)c(/C=N/OC(=O)c2ccccc2)c1Sc1ccc(Cl)cc1,"inconclusive: 18.4 µM [inhibitor, single point]"
21,Cc1ccc(OCC(=O)OCc2nc3scc(-c4ccccc4)c3c(=O)[nH]2)cc1C,inactive
22,Cc1ccsc1/C=C(\C#N)C(=O)NC1CCS(=O)(=O)C1 (centres undefined),inactive

row,SMILES,Potency
1,COc1ccc(/C=C/C(=O)OCC(=O)Nc2cc(S(=O)(=O)N(C)C)ccc2Cl)cc1,inactive
2,CCCCN1CC(=O)N2[C@H]3c4cc(Cl)ccc4OC[C@@H]3[C@H](c3ccccc3)[C@]2(C)C1=O,active: 18.3 µM
3,C=CSc1sc(Cl)c(N(C)C)c1[N+](=O)[O-],"inconclusive: 25.9 µM [activator, partial curve, poor fit]"
4,CCC(=O)N1CCC2(CC1)Oc1ccc(Cl)cc1C(=O)C21CC(c2ccc(Cl)cc2)=NO1 (centres undefined),active: 10.3 µM
5,O=C(CSc1nc2ccccc2c(=O)n1CCC(=O)N1CCN(c2ccccc2)CC1)NCC1CCCO1 (centres undefined),inactive
6,CC(=O)c1ccc(-c2ccc(C(=O)Nc3nc(C)c(C(C)=O)s3)o2)cc1,inactive
7,Cc1cccc(N(Cc2cc3ccccc3[nH]c2=O)C(=O)c2cccs2)c1,inactive
8,O=C(c1ccccc1)c1ccc(-c2ccc(O)cc2)cc1,"inconclusive: 20.6 µM [activator, partial curve]"
9,Cc1ccccc1C(=O)NCC(=O)N1CCN(C/C=C/c2ccccc2)CC1,"inconclusive: 25.9 µM [inhibitor, single point]"
10,CC(=O)Nc1ccc(CNc2ncnc3ccc(-c4c(C)noc4C)cc23)cc1,"inconclusive: 0.82 µM [activator, partial curve, poor fit]"
11,COc1ccc(-c2nnc(NC(=O)Cc3ccccc3)o2)cc1,inactive
12,O=C(C1CCN(S(=O)(=O)c2cccnc2)CC1)N1CCN(c2ccc(Cl)cc2)CC1,active: 2.91 µM
13,Cc1ccc(CNC(=O)CCSCCC(=O)NCc2ccc(C)cc2)cc1,inactive
14,CC(C)c1ccc2oc(=O)cc(CN3CCN(c4ccc(F)cc4)CC3)c2c1,"inconclusive: 29.1 µM [inhibitor, single point]"
15,Cc1nn(Cc2ccccc2Cl)c(C)c1C(=O)N1CCN(c2ccccc2)CC1,inactive
16,CC(/C=N/NC(=O)c1nnn(-c2nonc2N)c1C(C)C)=C\c1ccco1,"inconclusive: 29.1 µM [inhibitor, single point]"
17,COc1cc(C(=O)Nc2nnc(C)s2)cc(OC)c1OC,inactive
18,CCCCC[C@H]1CN(CCc2ccccc2)C(=O)[C@@H]1CC(=O)NCc1ccc(OC)cc1,inactive
19,CCC(C)(C)NC(=O)CN(Cc1ccco1)C(=O)CCC(=O)Nc1nccs1,inactive
20,CCCn1c(N/N=C\C=C\c2ccccc2)nc2c1c(=O)[nH]c(=O)n2C,"inconclusive: 32.6 µM [inhibitor, partial curve, poor fit]"
21,COc1ccc(C2=CC(=O)C[C@H](c3ccc4c(c3)OCO4)C2)cc1,"inconclusive: 0.366 µM [inhibitor, single point]"
22,Cn1c(=O)c2c3c(sc2n2c(SCC(N)=O)nnc12)CC(C(C)(C)C)CC3 (centres undefined),active: 23.1 µM
